Reference: PMC6925144, “A prospective compound screening contest identified broader inhibitors for Sirtuin 1” (Scientific Reports, 2019)
In all, about 3,200 compounds were measured (“TSA(without NAD+) / Primary screening (TSA) / delta Tm (K)”: median about -0.07, highest 2% from about 0.37 on). Some of the results follow.

Amino acid sequences for entries named in this document (tags omitted). Residues count along the entry.
UniProt Q96EB6, 2-747 limits assumed: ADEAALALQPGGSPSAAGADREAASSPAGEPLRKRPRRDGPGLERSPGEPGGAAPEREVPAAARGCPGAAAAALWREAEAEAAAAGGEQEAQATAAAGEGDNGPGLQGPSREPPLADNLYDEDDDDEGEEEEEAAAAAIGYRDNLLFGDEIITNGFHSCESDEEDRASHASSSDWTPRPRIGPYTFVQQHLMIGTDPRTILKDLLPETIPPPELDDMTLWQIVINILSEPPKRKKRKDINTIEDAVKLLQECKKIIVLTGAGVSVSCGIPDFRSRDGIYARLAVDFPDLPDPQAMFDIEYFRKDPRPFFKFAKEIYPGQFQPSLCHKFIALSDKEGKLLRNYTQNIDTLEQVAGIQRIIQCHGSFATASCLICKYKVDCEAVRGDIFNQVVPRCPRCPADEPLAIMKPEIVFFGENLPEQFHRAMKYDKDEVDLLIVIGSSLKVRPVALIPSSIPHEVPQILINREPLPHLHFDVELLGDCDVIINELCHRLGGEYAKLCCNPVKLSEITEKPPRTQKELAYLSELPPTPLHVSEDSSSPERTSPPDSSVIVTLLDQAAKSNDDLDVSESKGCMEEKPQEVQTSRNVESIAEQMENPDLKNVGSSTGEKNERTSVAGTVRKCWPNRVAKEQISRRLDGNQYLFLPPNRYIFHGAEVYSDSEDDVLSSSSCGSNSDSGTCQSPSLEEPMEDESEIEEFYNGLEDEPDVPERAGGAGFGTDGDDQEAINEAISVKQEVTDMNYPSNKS

Biological target: NAD-dependent deacetylase Sirtuin 1 (human, UniProt Q96EB6)
Assay: primary screen, delta tm
Parameters: single well (n = 1)
Conditions: 10 µM
Description: A total of 3,192 compounds extracted from the proposed lists were first screened by thermal shift assay (TSA), which determined a melting temperature shift (ΔTm) of Sirtuin 1 upon the addition of a test compound at a concentration of 10 µM (n = 1) with primary hit criteria of ΔTm > 0.45 K or ΔTm < −1.5 K. Primary hits (48 compounds) were retested in the same assay at three concentrations (5, 10, 20 µM, n = 4) for hit confirmation and for dose-dependency check. Secondary hits (41 compounds) were checked their selectivity for Sirtuin 1 based on counterscreening on unrelated protein targets (bovine carbonic anhydrase (CA) and recombinant SH2 domain of hABL1 kinase (ABL1)) at three different concentrations (5, 10, 20 µM, n = 4), which yielded 38 hit compounds, hereafter referred to as TSA hits. The TSA screening above was conducted in the absence of NAD+.

| Compound | TSA(without NAD+) / Primary screening (TSA) / delta Tm (K) |
| --- | --- |
| COC(=O)NC(CC(C)C)C(=O)N(C)Cc1nc2ccccc2[nH]1 (stereo not drawn) | 0.02 K |
| CN(C)CCCOC1CCN(c2ncnc3ccc(S(C)(=O)=O)cc23)CC1 | -0.08 K |
| c1nc(N2CCSCC2)c2[nH]cnc2n1 | 0.06 K |
| O=C(O)c1ccc(OCc2cccs2)cc1 | -0.03 K |
| CC(OC(=O)COc1ccc2c(c1)CCC2)C(=O)Nc1ccc(C(N)=O)cc1 (stereo not drawn) | -0.07 K |
| CN(Cc1ccc(O)cc1)C(=O)C1c2ccccc2Oc2ccccc21 | -0.12 K |
| COc1cccc(C(=O)C2=C(O)C(=O)N(CCCN3CCOCC3)C2c2cccnc2)c1 (stereo not drawn) | 0.02 K |
| CC(C)c1cc(=O)oc2cc(OCc3ccc(C(N)=O)cc3)ccc12 | -0.02 K |
| CN(C)c1c(Cl)cccc1NC(=O)c1ccc(Cl)nc1Cl | 0.09 K |
| Cc1c(CC(=O)O)c(=O)[nH]c2c1c(=O)[nH]n2C | -0.11 K |
| O=C1/C(=C/c2cccc(O)c2)Oc2cc(O)ccc21 | -0.21 K |
| CCN(CC(=O)Nc1cc(C(N)=O)cc(C(N)=O)c1)Cc1cccc(F)c1 | 0.06 K |
| Cc1ccccc1C(=O)N1CCC(C(=O)NCCc2nc3ccccc3[nH]2)CC1 | 0.02 K |
| COCC(N)CO (stereo not drawn) | -0.23 K |
| O=C(Cn1cnc2sccc2c1=O)c1ccc2c(c1)Cc1ccccc1-2 | 0.12 K |
| COc1ccccc1NC(=O)COc1ccc(C(=O)OCC(=O)NCCC2=CCCCC2)cc1OC | -0.15 K |
| CN(C)C(CNC(=O)c1ccc2c(c1)OCC(=O)N2)c1ccco1 (stereo not drawn) | 0.02 K |
| CCC(CC)NCCN | -0.13 K |
| Cc1noc(C)c1C(=O)OCC(=O)Nc1ccc(C(N)=O)cc1 | -0.28 K |
| CSc1ccc(NC(=O)C2CC(=O)Nc3cc(F)ccc32)cc1 (stereo not drawn) | -0.22 K |
| COC(=O)c1ccc2[nH]c(CN)nc2c1 | -0.18 K |
| Cc1ccc(-c2sc(-c3ccccc3)nc2CC(=O)NNC(=O)C2COc3ccccc3O2)cc1 (stereo not drawn) | 0.06 K |
| CCC(NC)C(=O)O (stereo not drawn) | -0.18 K |
| Cc1ccccc1CSc1nc2ccsc2c(=O)n1C | -0.24 K |

| Compound | TSA(without NAD+) / Primary screening (TSA) / delta Tm (K) |
| --- | --- |
| O=C(CCc1nc2ccccc2o1)Nc1ccc(N2CCN(Cc3ccccc3)CC2)cc1 | -0.08 K |
| Cc1ccc(CN(C(=O)NCc2ccco2)C2CCc3ccccc32)cc1 (stereo not drawn) | 0.17 K |
| O=C(O)C1CC(=O)N(c2ccc(S(=O)(=O)Nc3ccc4c(c3)CCC4)cc2)C1 (stereo not drawn) | -0.04 K |
| COc1ccc(C(=O)NC2CCCC2(C)CO)cc1-c1ccccn1 (stereo not drawn) | -0.14 K |
| O=C1CC(N2CCN(c3cnccn3)CC2)C(=O)N1CCc1ccccc1 (stereo not drawn) | -0.13 K |
| CCc1cc2c(N3CCCN(CC(N)=O)CC3)ncnc2s1 | -0.17 K |
| Cc1cc(C(=O)COC(=O)C23CC4CC(CC(O)(C4)C2)C3)c(C)n1-c1c(C)n(C)n(-c2ccccc2)c1=O | -0.33 K |
| COc1cc(CNc2ccc3nnnn3n2)cc(OC)c1OC | -0.04 K |
| CC(C#N)(NC(=O)CNc1cccnc1-c1ccccc1)C1CC1 (stereo not drawn) | 0.08 K |
| C=CCc1c(C)c(C#N)c2nc3ccccc3n2c1Cl | -0.03 K |
| CCOc1ccc(Nc2cc(C)nc3c4c(C)cc(C)nc4nn23)cc1 | -0.23 K |
| NCC(N)C1CC1 (stereo not drawn) | -0.08 K |
| COc1ccc2ccccc2c1C=C1C(=O)NC(=S)NC1=O | 0.02 K |
| O=C(CN1CCN(C(=O)c2ccccc2Nc2ccccc2)CC1)Nc1ccccc1Cl | -0.12 K |
| CC1CC1C(=O)Nc1ccc(C(=O)NCc2nc3cccnc3[nH]2)cc1 (stereo not drawn) | -0.04 K |
| NC(=O)N1CCCN(C(=O)c2ccc3c(c2)C(=O)c2ccccc2-3)CC1 | -0.21 K |
| CC(C)OC(=O)CC(Nc1ccc2nnnn2n1)c1ccccc1 (stereo not drawn) | -0.07 K |
| CCC(C)c1ccc(C(NC(C)C(=O)Nc2ccc(C(N)=O)cc2)C(C)C)cc1 (stereo not drawn) | -0.18 K |
| COc1cccc(CNC(=O)COC(=O)CNC(=O)c2ccc3ccccc3c2)c1 | 0.07 K |
| COC(=O)c1ccc(Cn2ncc3ccccc3c2=O)cc1 | -0.05 K |
| O=C(CN1CCCC1=O)Nc1ccc2nc(S)[nH]c2c1 | -0.11 K |
| CC(=O)NCc1ccc(-c2csc(NC(=O)C(C)NC(=O)c3cccs3)n2)o1 (stereo not drawn) | 0.12 K |
| CC(CN)CO (stereo not drawn) | -0.15 K |
| CC1(c2cccc(C(N)=O)c2)NC(=O)NC1=O (stereo not drawn) | 0.02 K |

By substructure, the compounds so far containing two or more sulfur atoms (2)

| Compound | TSA(without NAD+) / Primary screening (TSA) / delta Tm (K) |
| --- | --- |
| Cc1ccccc1CSc1nc2ccsc2c(=O)n1C | -0.24 K |
| CC(=O)NCc1ccc(-c2csc(NC(=O)C(C)NC(=O)c3cccs3)n2)o1 (stereo not drawn) | 0.12 K |

Following part.

| Compound | TSA(without NAD+) / Primary screening (TSA) / delta Tm (K) |
| --- | --- |
| Cc1cccc(C(=O)Oc2ccc3oc4ccccc4c3c2)c1 | 0.18 K |
| CC(=O)N1CCc2[nH]c3ccc(C)cc3c2C1 | -0.11 K |
| O=C1/C(=C\c2ccc(Br)cc2)CC/C1=C/c1ccccc1OC(F)F | -0.08 K |
| O=C(CCCCc1c[nH]nn1)Nc1cccn(Cc2ccc(F)cc2)c1=O | -0.12 K |
| O=C(NCc1nc2ccccc2[nH]1)/C(=C/c1ccccc1)c1ccccc1 | 0.09 K |
| O=C(NCc1ccc(N2CCCC2=O)cc1)c1ccc(NC(=O)C2CC2)s1 | 0.18 K |
| CN(C(=O)Cc1ccc(-c2ccccc2)cc1)C1CCc2ccccc21 (stereo not drawn) | -0.33 K |
| CC(C)(C)c1ccc(OCC(=O)NNC(=O)c2cccnc2O)cc1 | 0.17 K |
| CC(=O)Nc1ccc(CNC(=O)c2c(C)[nH]c3ccccc23)cc1 | 0.05 K |
| COc1ccc(-c2cc(C(=O)Nc3ccc(C(N)=O)cc3)c3ccccc3n2)cc1 | -0.02 K |
| Clc1cc(Cl)cc(NC(c2cccnc2)c2ncc[nH]2)c1 (stereo not drawn) | -0.14 K |
| CCOc1ccc(C(=O)C2=C(O)C(=O)N(CCCN3CCOCC3)C2c2ccccn2)cc1 (stereo not drawn) | -0.17 K |
| CCS(=O)CCN (stereo not drawn) | -0.18 K |
| Cc1ccc2nc(-c3ccccc3)c(N)n2c1 | -0.17 K |
| CC(C)(CNS(=O)(=O)c1ccc(C(N)=O)cc1)c1ccc2c(c1)OCO2 | 0.07 K |
| COc1ccc(-c2cc(C(=O)Nc3cc(Cl)ccc3C#N)c3ccccc3n2)cc1OC | -0.27 K |
| O=c1cc(Cn2nnc3ccccc3c2=O)c2cc3c(cc2o1)CCC3 | -0.07 K |
| CS(=O)(=O)c1ccc(NCCNC(=O)C23CC4CC(C2)CC(c2ccccc2)(C4)C3)c([N+](=O)[O-])c1 | 0.13 K |
| O=C(CSc1nnc(Cc2ccccc2)o1)N1N=C(c2cccs2)CC1c1cccs1 (stereo not drawn) | 0.12 K |
| Cc1cc(C(=O)N2CCN(C(=O)Nc3cccc(NC(=O)c4ccncc4)c3)CC2)c(C)o1 | 0.12 K |
| COCCCn1ccc(Nc2nc(C)nc3[nH]ccc23)n1 | -0.14 K |
| CCC(C)NC(=O)CSc1nnc(-c2c[nH]c3ccccc23)n1Cc1ccco1 (stereo not drawn) | 0.05 K |
| CSc1ncc(C(=O)OCC(N)=O)n1-c1ccccc1 | -0.22 K |
| COc1cccc(-c2nc(CSc3nnc(-c4ccco4)n3Cc3ccccc3)cs2)c1 | -0.22 K |

Some of these compounds in order of length of the SMILES, falling:

| Compound | TSA(without NAD+) / Primary screening (TSA) / delta Tm (K) |
| --- | --- |
| NC(=O)N1CCCN(C(=O)c2ccc3c(c2)C(=O)c2ccccc2-3)CC1 | -0.21 K |
| O=c1cc(Cn2nnc3ccccc3c2=O)c2cc3c(cc2o1)CCC3 | -0.07 K |
| COC(=O)c1ccc2[nH]c(CN)nc2c1 | -0.18 K |

Following part.

| Compound | TSA(without NAD+) / Primary screening (TSA) / delta Tm (K) |
| --- | --- |
| COc1ccc(C(CNC(=O)C2=COCCO2)c2c[nH]c3ccccc23)cc1 (stereo not drawn) | -0.02 K |
| O=C(CCCN1C(=O)c2cccc3cccc(c23)C1=O)NNC(=O)CC12CC3CC(CC(C3)C1)C2 | 0.02 K |
| NC(=O)c1ncn(-c2ccncc2)c1N | -0.02 K |
| O=C(C1=C(O)C(=O)N(CCCN2CCOCC2)C1c1ccc(Cl)c(Cl)c1)c1ccco1 (stereo not drawn) | -0.03 K |
| Cc1[nH]c2ccccc2c1C(=O)C(C)N1CCC(C(N)=O)CC1 (stereo not drawn) | 0.19 K |
| COc1ccc(C(C)=O)c2ccccc12 | -0.12 K |
| CCCOc1cccc(C2C(C(=O)c3ccc(OC)cc3)=C(O)C(=O)N2CCCN2CCOCC2)c1 (stereo not drawn) | -0.23 K |
| CC(NS(C)(=O)=O)C(=O)O (stereo not drawn) | -0.01 K |
| CCOC(=O)c1sc(N(Cc2ccccc2)C(=O)CSc2nnc(C3CC3)n2N)nc1C | -0.13 K |
| CCOC(=O)c1sc2nc(C)nc(N3CCN(S(=O)(=O)c4cccs4)CC3)c2c1C | -0.08 K |
| CC(C)(C)c1ccc(COc2ccc3c4c(c(=O)oc3c2)CCC4)cc1 | -0.23 K |
| Cc1ccc(N(C)S(=O)(=O)c2cccc(C(=O)OCc3ccc(C(C)(C)C)cc3)c2)cc1 | 0.09 K |
| CC(OC(=O)C1=C(Nc2ccccc2)OCC1=O)c1ccccc1Cl (stereo not drawn) | -0.02 K |
| CC(c1ccc(-n2cnc3ccccc32)cc1)N(C)C(=S)Nc1ccccc1 (stereo not drawn) | 0.07 K |
| CON(C)C(=O)Cn1c2ccccc2c(=O)c2ccccc21 | -0.05 K |
| CCCOc1cccc(C2C(C(=O)/C=C/c3ccco3)=C(O)C(=O)N2CCCN2CCOCC2)c1 (stereo not drawn) | -0.01 K |
| CCN(C(=O)CSc1nc(N)nc(N)n1)C1=CCCC1 | -0.08 K |
| CCCc1nnn[nH]1 | -0.07 K |
| CC1CCC(C(N)=O)CN1Cc1nc2c(F)cccc2[nH]1 (stereo not drawn) | 0.12 K |
| COc1cc(/C=C(/C#N)C(=O)NCCc2cnn(-c3ccccc3)c2)ccc1O | 0.05 K |
| CC([NH3+])C(C)[NH3+] (stereo not drawn) | -0.12 K |
| O=C1c2cccc3cccc(c23)N1Cc1cc(-c2cccs2)on1 | 0.05 K |
| CC(=O)N(c1ccc(C)c(C)c1)c1nc(/C=C(/CC(=O)O)c2nc3ccccc3s2)cs1 | 0.17 K |
| NC(=O)Cc1ccc(NC(=O)c2cc(Br)ccc2Cl)cc1 | -0.11 K |
